# Measurements as given in patent US20190023785A1 (SHANGHAI JIAOTONG UNIVERSITY, published 2019).
# The chains behind the UniProt entries cited, without tags or fusion partners. Where a name states a change or a piece, a line headed by the entry shows the natural chain unless it says otherwise.
# UniProt P61769: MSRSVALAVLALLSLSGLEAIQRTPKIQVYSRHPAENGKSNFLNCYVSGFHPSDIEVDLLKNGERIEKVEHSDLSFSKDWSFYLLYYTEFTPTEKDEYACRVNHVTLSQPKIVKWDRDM
# Results are given in words; binding and its absence hold for the method and conditions named. Some entries that bind do so weakly or less than the wild type. Tags and fused reporters may be left off the sequences shown.
# B1: fusion protein G12 (GLP1 (AA7-36; A8G, G22E, R36G)-linker-FnAb12 scFv) (protein)
# chain: HGEGTFTSDVSSYLEEQAAKEFIAWLVKGGGGGGGSGGGGSGGGGSDIQLTQSPSSLSASVGDRVTLTCQATQDIDNNLNWYQQKPGKAPKLLIYDASNLETGVPSRFSGSGSGTDFTFTISDLQPEDVATYYCQQYYNLPLTFGGGTKVDIKRSRGGGGSGGGGSGGGGSLEMAEVQLVQSGAEVKKPGASVKVSCKASGYTFTSYDINWVRQATGQGLEWMGWMNPNSGNTGYAQKFQGRVTMTRNTSISTAYMELSSLRSEDTAVYYCARGVDLGDGWGQGTLVTVSS
# Target: T1, hFcRn&b2M protein (human, UniProt P61769 21-119, limits assumed)
# T1 construct: also called hFcRn&β2M; human FcRn protein
# Experiment: SPR (Biacore), hFcRn on CM5 chip, 200 nM analyte, pH 6.0 and pH 7.4
binder,measurement,value
B1,binding,binds
